Primary screen of a compound library

The chains behind the UniProt entries cited, without tags or fusion partners. Residues count along the entry.
UniProt P9WFT3, whole entry: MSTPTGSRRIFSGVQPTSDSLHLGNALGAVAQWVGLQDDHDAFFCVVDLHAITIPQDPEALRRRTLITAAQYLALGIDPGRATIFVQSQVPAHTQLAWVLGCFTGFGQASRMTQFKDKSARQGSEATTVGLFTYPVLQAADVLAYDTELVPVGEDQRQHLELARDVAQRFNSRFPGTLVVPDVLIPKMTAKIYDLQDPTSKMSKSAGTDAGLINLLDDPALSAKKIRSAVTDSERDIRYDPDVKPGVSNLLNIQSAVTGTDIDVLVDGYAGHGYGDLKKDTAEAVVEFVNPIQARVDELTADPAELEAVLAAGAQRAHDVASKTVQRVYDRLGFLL
UniProt I6X8D2, whole entry: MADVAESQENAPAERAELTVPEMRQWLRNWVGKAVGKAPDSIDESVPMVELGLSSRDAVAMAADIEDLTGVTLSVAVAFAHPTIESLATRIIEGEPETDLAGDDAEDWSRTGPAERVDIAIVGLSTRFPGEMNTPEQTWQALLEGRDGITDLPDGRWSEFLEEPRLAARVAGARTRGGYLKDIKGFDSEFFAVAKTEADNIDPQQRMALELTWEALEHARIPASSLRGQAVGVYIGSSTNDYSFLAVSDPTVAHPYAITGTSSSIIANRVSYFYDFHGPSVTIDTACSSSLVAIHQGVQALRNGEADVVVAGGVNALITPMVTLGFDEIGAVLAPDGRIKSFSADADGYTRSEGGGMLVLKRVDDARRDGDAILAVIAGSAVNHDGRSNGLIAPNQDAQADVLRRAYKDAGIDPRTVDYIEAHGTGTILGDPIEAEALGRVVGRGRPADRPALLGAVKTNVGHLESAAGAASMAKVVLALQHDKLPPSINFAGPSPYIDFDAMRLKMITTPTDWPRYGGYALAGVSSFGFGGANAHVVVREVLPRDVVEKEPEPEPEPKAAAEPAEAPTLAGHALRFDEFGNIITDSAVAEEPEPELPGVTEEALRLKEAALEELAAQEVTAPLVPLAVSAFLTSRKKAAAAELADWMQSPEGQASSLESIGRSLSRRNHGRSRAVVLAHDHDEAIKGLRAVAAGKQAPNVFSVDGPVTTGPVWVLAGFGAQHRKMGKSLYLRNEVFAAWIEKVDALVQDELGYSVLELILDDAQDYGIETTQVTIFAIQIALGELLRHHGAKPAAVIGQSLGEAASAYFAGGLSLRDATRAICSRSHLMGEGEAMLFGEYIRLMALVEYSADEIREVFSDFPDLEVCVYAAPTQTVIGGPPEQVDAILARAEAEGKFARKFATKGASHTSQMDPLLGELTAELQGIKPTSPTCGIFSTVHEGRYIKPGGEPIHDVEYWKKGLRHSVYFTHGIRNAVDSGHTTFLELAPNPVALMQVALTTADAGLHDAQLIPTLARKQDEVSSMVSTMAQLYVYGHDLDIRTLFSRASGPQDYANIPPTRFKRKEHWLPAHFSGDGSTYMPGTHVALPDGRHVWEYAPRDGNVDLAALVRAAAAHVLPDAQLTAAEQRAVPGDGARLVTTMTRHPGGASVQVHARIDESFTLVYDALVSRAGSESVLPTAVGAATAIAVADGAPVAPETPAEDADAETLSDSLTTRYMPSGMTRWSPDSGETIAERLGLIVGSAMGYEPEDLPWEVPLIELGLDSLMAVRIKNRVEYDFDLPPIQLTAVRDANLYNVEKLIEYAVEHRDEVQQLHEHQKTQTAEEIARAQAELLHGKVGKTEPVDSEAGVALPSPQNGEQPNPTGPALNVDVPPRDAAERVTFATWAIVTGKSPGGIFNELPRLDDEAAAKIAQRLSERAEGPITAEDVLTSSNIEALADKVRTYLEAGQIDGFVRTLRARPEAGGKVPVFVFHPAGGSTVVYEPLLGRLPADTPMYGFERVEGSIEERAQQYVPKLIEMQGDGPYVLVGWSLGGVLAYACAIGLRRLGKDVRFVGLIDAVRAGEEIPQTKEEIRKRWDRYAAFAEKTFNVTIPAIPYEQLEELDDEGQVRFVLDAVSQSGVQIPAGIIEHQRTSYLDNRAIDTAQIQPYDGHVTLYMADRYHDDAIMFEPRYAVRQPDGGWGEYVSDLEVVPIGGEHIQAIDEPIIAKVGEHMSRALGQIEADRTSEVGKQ
UniProt A4I591, 1-473: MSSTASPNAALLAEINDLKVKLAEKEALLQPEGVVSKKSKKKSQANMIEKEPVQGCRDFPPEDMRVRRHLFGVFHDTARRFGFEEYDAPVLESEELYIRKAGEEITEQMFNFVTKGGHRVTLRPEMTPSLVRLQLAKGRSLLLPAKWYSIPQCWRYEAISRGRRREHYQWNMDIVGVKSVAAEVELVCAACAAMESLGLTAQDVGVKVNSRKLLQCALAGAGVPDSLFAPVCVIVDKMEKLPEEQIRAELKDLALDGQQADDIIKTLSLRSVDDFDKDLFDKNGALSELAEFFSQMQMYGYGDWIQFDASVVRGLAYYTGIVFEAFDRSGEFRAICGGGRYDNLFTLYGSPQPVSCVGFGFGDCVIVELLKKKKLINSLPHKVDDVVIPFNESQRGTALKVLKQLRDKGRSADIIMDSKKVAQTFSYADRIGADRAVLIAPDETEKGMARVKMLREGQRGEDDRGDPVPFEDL
UniProt Q8IDJ8, 1-583: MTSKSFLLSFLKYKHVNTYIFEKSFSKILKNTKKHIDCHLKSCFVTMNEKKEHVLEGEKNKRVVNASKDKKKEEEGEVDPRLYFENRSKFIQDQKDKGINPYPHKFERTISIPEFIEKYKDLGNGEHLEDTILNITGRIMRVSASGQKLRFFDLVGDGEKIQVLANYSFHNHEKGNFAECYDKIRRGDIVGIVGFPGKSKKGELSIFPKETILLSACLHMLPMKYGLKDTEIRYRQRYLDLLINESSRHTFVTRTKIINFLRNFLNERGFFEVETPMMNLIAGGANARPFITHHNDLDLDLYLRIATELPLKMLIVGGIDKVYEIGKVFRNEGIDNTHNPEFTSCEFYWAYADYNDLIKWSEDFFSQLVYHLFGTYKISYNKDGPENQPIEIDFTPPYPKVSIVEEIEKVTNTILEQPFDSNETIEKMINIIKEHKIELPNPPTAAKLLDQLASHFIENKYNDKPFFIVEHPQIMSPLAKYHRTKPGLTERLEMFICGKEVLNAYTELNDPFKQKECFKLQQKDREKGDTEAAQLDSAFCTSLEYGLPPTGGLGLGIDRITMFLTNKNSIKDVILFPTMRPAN

The values are deposited in ChEMBL (CHEMBL3988442, “University of Dundee, Small-Polar-MMV Screening Library” (2021)).

MtTrpRS: 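Tryptophan-tRNA ligase, Mycobacterium tuberculosis (UniProt P9WFT3). Enzyme assay of tryptophanyl-tRNA synthetase; the read-out is not stated. Concentration: 10 µM. Higher most likely means stronger inhibition; the record gives no direction and few retests gave an IC50. Of about 65,000 compounds tested this way, about 64 (0.098%) reached 50% or more in at least one test.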
Pks13 thioesterase: 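Polyketide synthase Pks13, Mycobacterium tuberculosis (UniProt I6X8D2). Enzyme assay of the thioesterase domain of polyketide synthase 13; the read-out is not stated. Compounds at 30 µM. The record gives no direction; the compounds picked for IC50 retests had high values, so higher reads as stronger inhibition. Size under these conditions: about 67,000 compounds, about 300 of them at 50% or above in at least one test.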
LiHisRS: 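Enzyme assay of histidyl-tRNA synthetase; the read-out is not stated. Target: Histidine-tRNA ligase, Leishmania infantum (UniProt A4I591). Concentration: 30 µM. Direction is inferred from retests: higher values go with stronger inhibition. The assay is labelled LdHisRS but filed under L. infantum. About 69,000 compounds were tested under these conditions; 0.6% (about 410) showed 50% or more at least once.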
PfKRS1: 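Lysine-tRNA ligase, Plasmodium falciparum 3D7 (UniProt Q8IDJ8). Enzyme assay of the cytosolic lysyl-tRNA synthetase in 384-well plates, read by luminescence. Tested at 30 µM. Higher reads as stronger inhibition, judged from the few compounds that gave an IC50. About 69,000 compounds were tested under these conditions; 0.071% (about 49) showed 50% or more at least once.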

Each number is a percent effect as filed.
How 0% and 100% were set is not recorded. Most values in the screen are low, and negative values occur.
This is an unselected part of the compounds tested.

Result for Cc1cccc(CN2CC[C@H]3CO[C@H](CNC(=O)N(C)C)[C@H]3C2)c1 was MtTrpRS: 0.9916%; Pks13 thioesterase: -26.64%; LiHisRS: 18.92%; PfKRS1: 8.693%. COc1ccc(-c2nnc(SC(C)C(=O)NCC(C)C)[nH]2)c(OC)c1 (stereo unspecified) read MtTrpRS: 0.3178%; Pks13 thioesterase: -45.66%; LiHisRS: 22.86%; PfKRS1: 6.558%. With O=C(CCc1ccccc1)N[C@H]1CC[C@@]2(CCC(=O)N2)CC1 the screen gave MtTrpRS: -4.651%; Pks13 thioesterase: -33.05%; LiHisRS: 17.31%; PfKRS1: 5.45%. For CC(C)N(Cc1ccc(Cl)c(Cl)c1)C(=O)Cn1cncn1 the result was MtTrpRS: 1.848%; Pks13 thioesterase: 1.083%; LiHisRS: 16.48%; PfKRS1: 1.33%. CCc1ccsc1C(=O)NCCn1nc2ccccn2c1=O read MtTrpRS: 0.7741%; Pks13 thioesterase: -4.842%; LiHisRS: 20.18%; PfKRS1: -1.301%. Result for O=C(c1cccs1)N1CCc2c(nc(N3CCCCC3)[nH]c2=O)C1 was Pks13 thioesterase: -0.823%; LiHisRS: -3.125%; PfKRS1: 2.932%.

With CC(C)c1nc(C2CCCN(C(=O)CN3CCCNC3=O)C2)no1 (stereo unspecified) the screen gave MtTrpRS: -3.037%; Pks13 thioesterase: 3.4%; LiHisRS: 6.494%; PfKRS1: 4.167%. Result for COCCN(C)CCN1CC2(CCN(C3CCCOC3)CC2)OC1=O (stereo unspecified) was MtTrpRS: 1.408%; LiHisRS: 14.15%; PfKRS1: 2.079%. With CCC1=N[C@@]2(CC[C@@H]3CN(S(=O)(=O)CC(C)C)C[C@@H]32)C(=O)N1CC1CC1 the screen gave MtTrpRS: 0.5578%; Pks13 thioesterase: -32.45%; LiHisRS: 22.12%; PfKRS1: -1.597%. For CCS(=O)(=O)c1ncc(CN2CCSCC2)n1CCc1ccccc1 the result was MtTrpRS: 1.84%; Pks13 thioesterase: -2.955%; LiHisRS: 2.128%; PfKRS1: -1.385%. For Cc1ccccc1Oc1ncccc1CNS(C)(=O)=O the result was MtTrpRS: -0.58%; Pks13 thioesterase: -18.18%; LiHisRS: 16.04%; PfKRS1: 1.773%. With CN(C)S(=O)(=O)c1csc(C(=O)N2CCSCC2)c1 the screen gave MtTrpRS: 2.886%; Pks13 thioesterase: -15.28%; LiHisRS: 7.692%; PfKRS1: -0.6436%.

COC[C@]1(O)CCN(C(=O)c2ccc(CN(C)C)o2)CC1(C)C read MtTrpRS: -3.767%; Pks13 thioesterase: -10.56%; LiHisRS: -7.042%; PfKRS1: 1.997%. COc1ccc(C(C)N2CCC(NS(C)(=O)=O)CC2)cc1Cl (stereo unspecified) read MtTrpRS: 16.01%; Pks13 thioesterase: 10.76%; LiHisRS: 0%; PfKRS1: -0.6118%. With Cc1ccc(C(=O)NS(=O)(=O)c2cc(F)ccc2F)c(=O)[nH]1 the screen gave MtTrpRS: -7.497%; Pks13 thioesterase: -5.507%; LiHisRS: 3.636%; PfKRS1: 0.9491%. Result for CC(C)OCc1ncn2c1CN(Cc1ccoc1)CCC2 was MtTrpRS: -5.185%; Pks13 thioesterase: -16.46%; LiHisRS: 20.59%; PfKRS1: -0.09288%. For COCC1CN(c2ncc(F)cn2)Cc2cnn(C)c21 (stereo unspecified) the result was Pks13 thioesterase: -14.71%; LiHisRS: 2.703%; PfKRS1: 4.664%. For CCCNCc1ccc(-c2ccnc3[nH]ccc23)cc1 the result was MtTrpRS: -1.016%; Pks13 thioesterase: -23.33%; LiHisRS: 36.71%; PfKRS1: 4.879%.

COc1c(CNCCNC(=O)c2ccc(C)cc2)c(C(C)C)nn1C read MtTrpRS: -9.386%; Pks13 thioesterase: -6.016%; LiHisRS: 16.36%; PfKRS1: 0.8041%. For CCC(O)CN1CCN(C(=O)c2cnn(-c3ccccc3F)c2)CC1 (stereo unspecified) the result was MtTrpRS: 2.534%; Pks13 thioesterase: -2.644%; LiHisRS: 9.821%; PfKRS1: 7.411%. With COCC(O)CNc1ccc(C#N)cc1C(F)(F)F (stereo unspecified) the screen gave MtTrpRS: -0.07003%; Pks13 thioesterase: -32.03%; LiHisRS: 15.79%; PfKRS1: 6.692%. Result for O=C(NCCc1ccsc1)Nc1cccnc1N1CCCC1 was MtTrpRS: 0.2924%; Pks13 thioesterase: -22.5%; LiHisRS: 40.91%; PfKRS1: 0.7181%. For Cc1cc(C)n(CC2CCCCN2C(=O)c2ccsc2)n1 (stereo unspecified) the result was MtTrpRS: -6.019%; Pks13 thioesterase: -3.082%; LiHisRS: 12.07%; PfKRS1: 0.7445%. With Cc1nc(CN(C)Cc2nc(-c3sccc3C)oc2C)no1 the screen gave MtTrpRS: -5.578%; Pks13 thioesterase: -22.72%; LiHisRS: 5.208%; PfKRS1: 3.626%.

Result for Cc1noc(CN(CCO)Cc2cc(Br)ccc2F)n1 was MtTrpRS: -7.148%; Pks13 thioesterase: -17.69%; LiHisRS: 6.25%; PfKRS1: 1.681%. CC(C)N(C)S(=O)(=O)c1ccc2c(c1)CCN(C(=O)c1cnccn1)C2 read MtTrpRS: 1.989%; Pks13 thioesterase: -5.497%; LiHisRS: 22.89%; PfKRS1: 0.4105%. Cc1ccc(CC(=O)N2CC[C@@H]3CN(CCN(C)C)CCO[C@@H]3C2)cc1 read MtTrpRS: 0.4359%; Pks13 thioesterase: -14.91%; LiHisRS: 6.015%; PfKRS1: 3.365%. For N#Cc1cccc(S(=O)(=O)N2CCCCC2CCN2CCCC2=O)c1 (stereo unspecified) the result was MtTrpRS: 0.08224%; Pks13 thioesterase: -27.15%; LiHisRS: 5.714%; PfKRS1: 1.452%. Result for COCc1ncc(CN(Cc2ccco2)C(C)C(C)C)cn1 (stereo unspecified) was MtTrpRS: 3.86%; Pks13 thioesterase: -7.589%; LiHisRS: 26.83%; PfKRS1: 4.193%. CCN(C(c1cccnc1)c1ccc(F)cc1F)S(C)(=O)=O (stereo unspecified) read MtTrpRS: -4.311%; Pks13 thioesterase: -31.11%; LiHisRS: 12.7%; PfKRS1: 1.22%.

With Cc1ccc(C(=O)N2CCC(Oc3ccc(C)c(C)c3)CC2)c(=O)[nH]1 the screen gave MtTrpRS: -2.448%; Pks13 thioesterase: -4.894%; LiHisRS: 21.43%; PfKRS1: 0.961%. Cc1cnn(CCNCC(=O)Nc2ccc(Cl)cn2)c1 gave MtTrpRS: -0.6224%; Pks13 thioesterase: 19.17%; LiHisRS: 0%; PfKRS1: 7.902%. CC1=NOC(C(=O)N(C)CCCn2nc(C)cc2C)C1 (stereo unspecified) gave MtTrpRS: -1.718%; Pks13 thioesterase: -8.726%; LiHisRS: 13.49%; PfKRS1: 3.717%.

For reference, 2 entries once more:

* O=C(c1cccs1)N1CCc2c(nc(N3CCCCC3)[nH]c2=O)C1 : Pks13 thioesterase: -0.823%; LiHisRS: -3.125%; PfKRS1: 2.932%
* CC(C)c1nc(C2CCCN(C(=O)CN3CCCNC3=O)C2)no1 (stereo unspecified) : MtTrpRS: -3.037%; Pks13 thioesterase: 3.4%; LiHisRS: 6.494%; PfKRS1: 4.167%